The source of these data is the supplement of paper PMC7238544.

SMILES strings stand for the structures. Structures can show the parent of a compound that is named as a salt. ± gives the standard deviation of the averaged measurements. The list shows a part of the results. The data scatter; read single values as rough.

The subject of assay [1] is hAMSC donor 1. Nature of the assay: Hoechst total cell count ratio vs vehicle control; higher = more cells (less toxicity).
The subject of assay [2] is hAMSC donor 2. Described as above.
The subject of assay [3] is hAMSC donor 1. Nature of the assay: transgenic luciferase activity (RLU/mg protein) fold change vs vehicle control (ratio); higher = more transgene expression.
The subject of assay [4] is hAMSC donor 2. The description is as above.
The subject of assay [5] is hAMSC donor 1. The assay is described as follows: transfection efficiency (EGFP+ cells / Hoechst count) fold change vs vehicle control (ratio); hAMSC are human adipose-derived mesenchymal stem cells given an EGFP-luciferase plasmid by lipofection; higher = enhanced transfection.
Assay [6] deals with hAMSC donor 2. The assay is described as above.
[7] abbreviates: priming compound concentration 0.2 µM.
The mark [8] stands for this setting: priming compound concentration 1.7 µM.
[9] abbreviates: priming compound concentration 13 µM.

As to `NS(=O)(=O)c1cc2c(cc1C(F)(F)F)NC(Cc1ccccc1)NS2(=O)=O` (stereo unspecified) [Bendrofluazide], the “Hoechst total cell count ratio” value in the assay with hAMSC donor 1 [1] (setting [7]) is 1.19 ± 0.024; with hAMSC donor 1 [1] (setting [8]), 1.19 ± 0.043; in the assay with hAMSC donor 1 [1] (setting [9]) it was 1.29 ± 0.037; in the assay with hAMSC donor 2 [2] (setting [7]), 0.948 ± 0.09; in the assay with hAMSC donor 2 [2] (setting [8]), 1.11 ± 0.34; in the assay with hAMSC donor 2 [2] (setting [9]) it was 0.964 ± 0.055. Also, the transgenic luciferase activity was determined as 0.659 ± 0.31 with hAMSC donor 1 [3] (setting [7]); 1.47 ± 0.24 in the assay on hAMSC donor 1 [3] (setting [8]); 1.2 ± 0.24 in the assay on hAMSC donor 2 [4] (setting [7]); 0.982 ± 0.14 with hAMSC donor 2 [4] (setting [8]); 1.18 ± 0.32 with hAMSC donor 2 [4] (setting [9]). Also, the transfection efficiency with hAMSC donor 1 [5] (setting [7]) worked out at 1.3 ± 0.38; in the assay on hAMSC donor 1 [5] (setting [8]) it was 1.07 ± 0.55; in the assay on hAMSC donor 1 [5] (setting [9]), 0.763 ± 0.15; in the assay with hAMSC donor 2 [6] (setting [7]) it was 0.971 ± 0.3; in the assay on hAMSC donor 2 [6] (setting [8]) it was 1.06 ± 0.52; with hAMSC donor 2 [6] (setting [9]), 1.38 ± 0.4.

`CNCCCN1c2ccccc2CCc2ccccc21` [Desipramine hydrochloride]: the “Hoechst total cell count ratio” value in the assay on hAMSC donor 1 [1] (setting [7]) is 1.16 ± 0.13; in the assay with hAMSC donor 1 [1] (setting [8]) it was 1.25 ± 0.12; with hAMSC donor 1 [1] (setting [9]), 1.4 ± 0.12; in the assay with hAMSC donor 2 [2] (setting [7]), 1.21 ± 0.31; in the assay on hAMSC donor 2 [2] (setting [8]), 1.205 ± 0.008; in the assay with hAMSC donor 2 [2] (setting [9]) it was 1.59 ± 0.067. The transgenic luciferase activity with hAMSC donor 1 [3] (setting [8]) was determined as 0.196 ± 0.049; in the assay with hAMSC donor 1 [3] (setting [9]) it was 0.794 ± 0.19; with hAMSC donor 2 [4] (setting [7]), 0.935 ± 0.27; with hAMSC donor 2 [4] (setting [8]) it was 0.989 ± 0.25; in the assay on hAMSC donor 2 [4] (setting [9]), 0.385 ± 0.13. Further, the transfection efficiency is 1.48 ± 0.18 in the assay on hAMSC donor 1 [5] (setting [7]); 1.25 ± 0.5 in the assay on hAMSC donor 1 [5] (setting [8]); 0.404 ± 0.14 in the assay with hAMSC donor 1 [5] (setting [9]); 1.08 ± 0.15 in the assay with hAMSC donor 2 [6] (setting [7]); 1.02 ± 0.042 with hAMSC donor 2 [6] (setting [8]); 0.587 ± 0.14 in the assay on hAMSC donor 2 [6] (setting [9]).

`CC(=O)OCC(=O)[C@@]1(O)CC[C@H]2[C@@H]3C[C@H](C)C4=CC(=O)C=C[C@]4(C)[C@H]3[C@@H](O)C[C@@]21C` [Methylprednisolone acetate]: the “Hoechst total cell count ratio” value in the assay with hAMSC donor 1 [1] (setting [7]) is 1.16 ± 0.18; in the assay on hAMSC donor 1 [1] (setting [8]), 1.73 ± 0.12; with hAMSC donor 1 [1] (setting [9]), 1.19 ± 0.15; in the assay with hAMSC donor 2 [2] (setting [7]) it was 1.59 ± 0.54; in the assay with hAMSC donor 2 [2] (setting [8]), 1.82 ± 0.44; with hAMSC donor 2 [2] (setting [9]), 2.09 ± 0.18. Moreover, the transgenic luciferase activity in the assay with hAMSC donor 1 [3] (setting [8]) is 4.6 ± 0.41; in the assay on hAMSC donor 1 [3] (setting [9]) it was 6.54 ± 1.7; in the assay with hAMSC donor 2 [4] (setting [8]), 2.92 ± 1.1; with hAMSC donor 2 [4] (setting [9]), 1.84 ± 0.3. Also, the transfection efficiency in the assay on hAMSC donor 1 [5] (setting [7]) stood at 1.91 ± 0.26; in the assay on hAMSC donor 1 [5] (setting [8]), 0.968 ± 0.33; in the assay with hAMSC donor 1 [5] (setting [9]), 2.25 ± 0.98; in the assay on hAMSC donor 2 [6] (setting [7]), 1.28 ± 0.46; in the assay on hAMSC donor 2 [6] (setting [8]) it was 2.13 ± 0.28; with hAMSC donor 2 [6] (setting [9]), 1.7 ± 0.34.

With `O=c1cnn([C@@H]2O[C@H](CO)[C@@H](O)[C@H]2O)c(=O)[nH]1` [6-Azauridine], the “Hoechst total cell count ratio” value in the assay with hAMSC donor 1 [1] (setting [7]) came to 1.09 ± 0.11; in the assay with hAMSC donor 1 [1] (setting [8]), 1.25 ± 0.14; with hAMSC donor 1 [1] (setting [9]) it was 0.927 ± 0.13; in the assay on hAMSC donor 2 [2] (setting [7]), 1.21 ± 0.17; in the assay on hAMSC donor 2 [2] (setting [8]) it was 1.09 ± 0.082; in the assay with hAMSC donor 2 [2] (setting [9]), 1.33 ± 0.15. Besides, the transgenic luciferase activity in the assay with hAMSC donor 1 [3] (setting [7]) is 0.533 ± 0.082; with hAMSC donor 1 [3] (setting [8]) it was 0.724 ± 0.31; in the assay on hAMSC donor 2 [4] (setting [7]), 0.766 ± 0.15; in the assay with hAMSC donor 2 [4] (setting [8]), 0.944 ± 0.17; with hAMSC donor 2 [4] (setting [9]) it was 0.819 ± 0.24. The transfection efficiency in the assay with hAMSC donor 1 [5] (setting [7]) is 1.48 ± 0.87; in the assay with hAMSC donor 1 [5] (setting [8]) it was 2.11 ± 0.76; in the assay on hAMSC donor 1 [5] (setting [9]), 1.33 ± 0.59; with hAMSC donor 2 [6] (setting [7]) it was 1 ± 0.21; in the assay with hAMSC donor 2 [6] (setting [8]), 1.2 ± 0.081; with hAMSC donor 2 [6] (setting [9]) it was 1.08 ± 0.13.

`CC(CCc1ccccc1)NCC(O)c1ccc(O)c(C(N)=O)c1` (stereo unspecified) [Labetalol hydrochloride]: the “Hoechst total cell count ratio” value in the assay on hAMSC donor 1 [1] (setting [7]) amounted to 1.26 ± 0.082; in the assay on hAMSC donor 1 [1] (setting [8]) it was 1.21 ± 0.095; with hAMSC donor 1 [1] (setting [9]), 1.38 ± 0.19; in the assay with hAMSC donor 2 [2] (setting [7]), 1.12 ± 0.074; in the assay with hAMSC donor 2 [2] (setting [8]), 1.21 ± 0.046; in the assay on hAMSC donor 2 [2] (setting [9]), 1.44 ± 0.069. Besides, the transgenic luciferase activity is 0.776 ± 0.059 in the assay with hAMSC donor 1 [3] (setting [8]); 0.366 ± 0.066 in the assay on hAMSC donor 1 [3] (setting [9]); 0.745 ± 0.096 in the assay on hAMSC donor 2 [4] (setting [7]); 0.441 ± 0.056 in the assay with hAMSC donor 2 [4] (setting [8]); 0.385 ± 0.058 with hAMSC donor 2 [4] (setting [9]). In addition, the transfection efficiency worked out at 1.04 ± 0.42 in the assay with hAMSC donor 1 [5] (setting [7]); 1.08 ± 0.2 with hAMSC donor 1 [5] (setting [8]); 1.1 ± 0.27 in the assay on hAMSC donor 1 [5] (setting [9]); 0.875 ± 0.072 with hAMSC donor 2 [6] (setting [7]); 1.13 ± 0.024 with hAMSC donor 2 [6] (setting [8]); 0.804 ± 0.092 with hAMSC donor 2 [6] (setting [9]).

`CCCC1O[C@@H]2C[C@H]3[C@@H]4CCC5=CC(=O)C=C[C@]5(C)[C@H]4[C@@H](O)C[C@]3(C)[C@]2(C(=O)CO)O1` (stereo partly specified) [Budesonide]: the “Hoechst total cell count ratio” value with hAMSC donor 1 [1] (setting [7]) was found to be 1.36 ± 0.16; in the assay on hAMSC donor 1 [1] (setting [8]), 1.33 ± 0.075; with hAMSC donor 1 [1] (setting [9]) it was 1.2 ± 0.18; with hAMSC donor 2 [2] (setting [7]), 0.865 ± 0.074; in the assay on hAMSC donor 2 [2] (setting [8]), 0.905 ± 0.047; in the assay with hAMSC donor 2 [2] (setting [9]), 1.33 ± 0.058. Besides, the transgenic luciferase activity in the assay on hAMSC donor 1 [3] (setting [7]) worked out at 7.13 ± 0.98; in the assay on hAMSC donor 1 [3] (setting [8]), 25.5 ± 3.8; in the assay with hAMSC donor 2 [4] (setting [7]), 3.02 ± 1.1; with hAMSC donor 2 [4] (setting [8]), 2.4 ± 0.94; in the assay on hAMSC donor 2 [4] (setting [9]), 3.93 ± 0.44. In addition, the transfection efficiency stood at 1.36 ± 0.052 in the assay on hAMSC donor 1 [5] (setting [7]); 1.44 ± 0.29 in the assay with hAMSC donor 1 [5] (setting [8]); 1.04 ± 0.22 with hAMSC donor 1 [5] (setting [9]); 2.62 ± 0.35 in the assay on hAMSC donor 2 [6] (setting [7]); 3.27 ± 0.023 in the assay on hAMSC donor 2 [6] (setting [8]); 2.1 ± 0.46 in the assay with hAMSC donor 2 [6] (setting [9]).
